28 targets from the supplement of paper PMC10849652 can be followed below.

Amino acid sequences for entries named in this document (tags omitted). A change or cut given only in a name is not applied to a line headed by its entry.
UniProt Q8TDX7: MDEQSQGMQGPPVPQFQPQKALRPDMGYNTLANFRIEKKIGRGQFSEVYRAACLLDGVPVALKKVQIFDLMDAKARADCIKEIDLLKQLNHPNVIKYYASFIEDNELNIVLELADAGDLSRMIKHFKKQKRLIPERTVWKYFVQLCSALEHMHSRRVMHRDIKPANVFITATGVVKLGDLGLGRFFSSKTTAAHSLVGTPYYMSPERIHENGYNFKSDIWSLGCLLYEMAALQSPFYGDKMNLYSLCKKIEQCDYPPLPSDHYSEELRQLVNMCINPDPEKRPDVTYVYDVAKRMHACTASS
UniProt P16083: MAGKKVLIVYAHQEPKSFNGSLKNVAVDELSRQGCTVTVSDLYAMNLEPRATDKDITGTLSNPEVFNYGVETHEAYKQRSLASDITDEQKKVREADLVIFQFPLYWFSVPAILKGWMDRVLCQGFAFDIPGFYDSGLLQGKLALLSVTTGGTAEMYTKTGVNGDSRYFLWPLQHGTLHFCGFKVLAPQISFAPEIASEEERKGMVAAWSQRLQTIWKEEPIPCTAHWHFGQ
UniProt Q9BS92: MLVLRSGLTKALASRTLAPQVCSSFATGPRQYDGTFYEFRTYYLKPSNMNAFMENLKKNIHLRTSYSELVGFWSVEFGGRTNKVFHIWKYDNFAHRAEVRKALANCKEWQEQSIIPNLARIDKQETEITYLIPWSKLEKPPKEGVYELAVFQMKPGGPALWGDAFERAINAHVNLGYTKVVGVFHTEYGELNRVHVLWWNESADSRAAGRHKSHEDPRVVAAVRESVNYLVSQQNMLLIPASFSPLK
UniProt P48681: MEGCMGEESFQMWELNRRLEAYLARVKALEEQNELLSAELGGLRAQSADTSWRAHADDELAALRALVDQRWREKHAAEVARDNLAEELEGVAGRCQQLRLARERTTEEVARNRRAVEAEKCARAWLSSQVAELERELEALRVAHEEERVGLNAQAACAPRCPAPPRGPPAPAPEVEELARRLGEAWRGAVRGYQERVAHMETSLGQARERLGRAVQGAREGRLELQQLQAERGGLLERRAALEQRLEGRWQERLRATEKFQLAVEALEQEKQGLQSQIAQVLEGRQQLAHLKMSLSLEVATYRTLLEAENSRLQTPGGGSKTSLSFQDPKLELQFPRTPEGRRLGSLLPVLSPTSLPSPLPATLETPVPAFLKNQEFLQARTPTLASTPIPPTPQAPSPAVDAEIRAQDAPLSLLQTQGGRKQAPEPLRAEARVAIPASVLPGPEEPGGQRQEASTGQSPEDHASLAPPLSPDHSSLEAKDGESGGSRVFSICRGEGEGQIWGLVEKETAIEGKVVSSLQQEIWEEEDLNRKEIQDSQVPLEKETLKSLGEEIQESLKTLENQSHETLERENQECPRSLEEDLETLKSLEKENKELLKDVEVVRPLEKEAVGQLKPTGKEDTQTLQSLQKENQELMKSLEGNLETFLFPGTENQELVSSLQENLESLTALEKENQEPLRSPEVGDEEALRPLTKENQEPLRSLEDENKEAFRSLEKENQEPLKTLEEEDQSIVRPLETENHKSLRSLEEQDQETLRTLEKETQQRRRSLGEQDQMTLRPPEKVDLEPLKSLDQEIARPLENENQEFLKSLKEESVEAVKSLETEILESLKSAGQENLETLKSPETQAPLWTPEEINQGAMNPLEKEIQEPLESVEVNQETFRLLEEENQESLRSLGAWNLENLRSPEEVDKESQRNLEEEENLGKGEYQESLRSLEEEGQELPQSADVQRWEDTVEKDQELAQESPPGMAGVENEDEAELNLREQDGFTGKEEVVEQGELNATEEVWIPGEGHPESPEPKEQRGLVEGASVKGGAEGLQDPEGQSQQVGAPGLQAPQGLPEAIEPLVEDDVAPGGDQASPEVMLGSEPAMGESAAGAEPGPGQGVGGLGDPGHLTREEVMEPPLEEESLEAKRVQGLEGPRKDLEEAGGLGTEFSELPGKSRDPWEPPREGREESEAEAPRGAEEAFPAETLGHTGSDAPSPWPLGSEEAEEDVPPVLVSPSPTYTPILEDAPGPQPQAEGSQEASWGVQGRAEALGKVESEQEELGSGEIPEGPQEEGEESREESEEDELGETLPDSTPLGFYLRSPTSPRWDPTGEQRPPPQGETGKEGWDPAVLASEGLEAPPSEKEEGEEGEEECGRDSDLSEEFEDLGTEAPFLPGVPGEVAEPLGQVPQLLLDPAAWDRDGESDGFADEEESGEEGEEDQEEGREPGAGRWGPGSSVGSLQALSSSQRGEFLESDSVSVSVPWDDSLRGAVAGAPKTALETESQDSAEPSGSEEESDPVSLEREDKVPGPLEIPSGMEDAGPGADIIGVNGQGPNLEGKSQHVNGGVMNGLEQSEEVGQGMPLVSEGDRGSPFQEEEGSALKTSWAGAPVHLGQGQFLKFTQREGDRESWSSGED
UniProt Q9Y697: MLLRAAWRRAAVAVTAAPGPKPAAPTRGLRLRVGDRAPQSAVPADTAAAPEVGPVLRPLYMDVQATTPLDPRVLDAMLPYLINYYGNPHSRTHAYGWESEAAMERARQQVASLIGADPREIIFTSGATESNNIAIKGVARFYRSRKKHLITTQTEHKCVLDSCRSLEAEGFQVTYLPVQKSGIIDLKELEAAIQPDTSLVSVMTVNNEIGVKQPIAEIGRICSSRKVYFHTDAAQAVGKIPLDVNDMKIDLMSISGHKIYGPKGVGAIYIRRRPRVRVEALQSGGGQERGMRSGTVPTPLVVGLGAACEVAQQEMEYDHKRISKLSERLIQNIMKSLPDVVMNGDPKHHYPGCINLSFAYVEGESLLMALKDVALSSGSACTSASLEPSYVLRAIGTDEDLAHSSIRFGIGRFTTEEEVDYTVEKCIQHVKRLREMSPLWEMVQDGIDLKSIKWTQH
UniProt O75607: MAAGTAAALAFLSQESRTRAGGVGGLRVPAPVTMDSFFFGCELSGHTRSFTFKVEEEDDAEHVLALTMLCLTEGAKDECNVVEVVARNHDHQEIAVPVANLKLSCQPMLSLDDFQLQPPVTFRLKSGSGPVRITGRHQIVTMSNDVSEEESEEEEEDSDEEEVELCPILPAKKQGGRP
UniProt Q8NBF2: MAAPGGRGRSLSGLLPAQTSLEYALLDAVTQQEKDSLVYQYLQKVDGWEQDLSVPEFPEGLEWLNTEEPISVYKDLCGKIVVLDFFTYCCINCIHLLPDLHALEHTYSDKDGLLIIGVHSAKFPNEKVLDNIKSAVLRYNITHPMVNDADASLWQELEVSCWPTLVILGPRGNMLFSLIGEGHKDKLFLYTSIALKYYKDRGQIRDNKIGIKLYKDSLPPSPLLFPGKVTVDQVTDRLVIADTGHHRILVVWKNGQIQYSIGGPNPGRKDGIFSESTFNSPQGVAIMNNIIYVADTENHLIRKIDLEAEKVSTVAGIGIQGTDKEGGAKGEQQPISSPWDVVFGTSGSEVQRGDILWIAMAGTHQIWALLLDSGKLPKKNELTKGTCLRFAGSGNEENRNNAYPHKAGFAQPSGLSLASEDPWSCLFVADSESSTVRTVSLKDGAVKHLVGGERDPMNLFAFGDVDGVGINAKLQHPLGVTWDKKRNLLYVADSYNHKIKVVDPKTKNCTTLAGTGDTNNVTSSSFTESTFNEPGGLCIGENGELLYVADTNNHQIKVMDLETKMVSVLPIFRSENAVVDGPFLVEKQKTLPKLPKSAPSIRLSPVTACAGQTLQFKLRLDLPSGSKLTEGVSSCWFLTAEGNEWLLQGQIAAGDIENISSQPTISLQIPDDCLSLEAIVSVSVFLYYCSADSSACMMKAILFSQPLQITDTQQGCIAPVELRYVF
UniProt Q9ULX3: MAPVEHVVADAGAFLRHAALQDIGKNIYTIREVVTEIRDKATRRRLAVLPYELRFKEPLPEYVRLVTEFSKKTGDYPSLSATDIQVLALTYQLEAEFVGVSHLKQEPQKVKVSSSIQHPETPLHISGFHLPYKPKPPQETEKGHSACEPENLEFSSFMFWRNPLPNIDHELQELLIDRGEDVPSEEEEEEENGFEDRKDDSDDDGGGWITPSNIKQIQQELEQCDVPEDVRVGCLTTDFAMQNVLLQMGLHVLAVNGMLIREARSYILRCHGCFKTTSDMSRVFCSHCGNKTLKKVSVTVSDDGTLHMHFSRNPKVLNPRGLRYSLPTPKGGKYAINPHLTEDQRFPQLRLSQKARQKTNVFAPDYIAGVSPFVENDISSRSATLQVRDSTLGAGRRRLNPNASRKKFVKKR
UniProt Q9BZQ8: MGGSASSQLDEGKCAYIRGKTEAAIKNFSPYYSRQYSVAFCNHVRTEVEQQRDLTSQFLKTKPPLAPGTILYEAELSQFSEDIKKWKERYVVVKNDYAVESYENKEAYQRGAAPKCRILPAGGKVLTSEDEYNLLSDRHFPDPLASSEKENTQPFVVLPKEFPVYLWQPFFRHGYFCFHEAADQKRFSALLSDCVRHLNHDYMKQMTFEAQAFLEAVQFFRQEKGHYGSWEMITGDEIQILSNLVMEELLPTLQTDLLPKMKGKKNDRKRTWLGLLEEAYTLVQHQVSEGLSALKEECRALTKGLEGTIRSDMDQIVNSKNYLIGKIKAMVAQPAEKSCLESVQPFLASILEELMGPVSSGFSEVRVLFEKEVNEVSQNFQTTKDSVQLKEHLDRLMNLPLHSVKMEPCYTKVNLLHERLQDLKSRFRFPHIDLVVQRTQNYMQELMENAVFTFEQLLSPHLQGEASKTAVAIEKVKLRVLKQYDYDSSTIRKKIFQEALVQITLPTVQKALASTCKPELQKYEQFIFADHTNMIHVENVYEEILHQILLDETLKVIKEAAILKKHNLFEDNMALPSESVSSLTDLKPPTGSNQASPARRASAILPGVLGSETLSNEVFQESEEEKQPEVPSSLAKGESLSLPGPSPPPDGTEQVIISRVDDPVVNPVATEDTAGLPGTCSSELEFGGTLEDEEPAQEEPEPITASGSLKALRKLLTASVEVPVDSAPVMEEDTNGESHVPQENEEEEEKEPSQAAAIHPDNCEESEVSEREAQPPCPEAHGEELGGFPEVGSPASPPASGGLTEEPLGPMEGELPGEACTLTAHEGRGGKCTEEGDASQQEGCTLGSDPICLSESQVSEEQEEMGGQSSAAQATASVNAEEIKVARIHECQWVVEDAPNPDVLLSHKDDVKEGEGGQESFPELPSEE
UniProt Q9BXD5: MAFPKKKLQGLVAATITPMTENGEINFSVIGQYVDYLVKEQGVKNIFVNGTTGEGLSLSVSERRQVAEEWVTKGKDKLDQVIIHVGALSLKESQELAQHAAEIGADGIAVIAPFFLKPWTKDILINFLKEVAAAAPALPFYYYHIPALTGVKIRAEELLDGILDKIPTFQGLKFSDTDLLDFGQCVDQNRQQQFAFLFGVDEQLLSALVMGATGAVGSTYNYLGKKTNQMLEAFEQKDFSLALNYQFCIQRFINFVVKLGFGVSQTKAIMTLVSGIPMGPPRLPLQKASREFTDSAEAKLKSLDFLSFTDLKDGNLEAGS
UniProt Q9Y3C1: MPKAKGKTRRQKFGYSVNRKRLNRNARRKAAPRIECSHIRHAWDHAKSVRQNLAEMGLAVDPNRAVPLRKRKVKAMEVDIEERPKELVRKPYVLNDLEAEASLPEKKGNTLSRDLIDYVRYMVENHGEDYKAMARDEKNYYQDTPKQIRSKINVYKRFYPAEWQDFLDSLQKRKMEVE
UniProt Q15738: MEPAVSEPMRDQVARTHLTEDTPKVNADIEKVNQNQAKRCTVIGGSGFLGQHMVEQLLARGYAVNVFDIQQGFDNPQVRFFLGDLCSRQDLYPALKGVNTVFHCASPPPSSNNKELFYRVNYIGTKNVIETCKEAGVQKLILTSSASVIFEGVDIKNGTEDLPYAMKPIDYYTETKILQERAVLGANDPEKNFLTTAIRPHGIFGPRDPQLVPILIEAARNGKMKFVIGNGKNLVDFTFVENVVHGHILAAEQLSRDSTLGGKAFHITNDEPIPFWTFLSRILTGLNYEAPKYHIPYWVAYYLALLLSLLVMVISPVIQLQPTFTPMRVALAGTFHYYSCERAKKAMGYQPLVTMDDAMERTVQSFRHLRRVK
UniProt P22392, whole entry, looked up: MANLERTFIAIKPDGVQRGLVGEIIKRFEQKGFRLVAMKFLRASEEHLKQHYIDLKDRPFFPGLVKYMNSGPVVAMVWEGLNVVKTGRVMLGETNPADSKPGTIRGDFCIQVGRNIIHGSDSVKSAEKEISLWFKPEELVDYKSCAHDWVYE
UniProt Q9NPE2: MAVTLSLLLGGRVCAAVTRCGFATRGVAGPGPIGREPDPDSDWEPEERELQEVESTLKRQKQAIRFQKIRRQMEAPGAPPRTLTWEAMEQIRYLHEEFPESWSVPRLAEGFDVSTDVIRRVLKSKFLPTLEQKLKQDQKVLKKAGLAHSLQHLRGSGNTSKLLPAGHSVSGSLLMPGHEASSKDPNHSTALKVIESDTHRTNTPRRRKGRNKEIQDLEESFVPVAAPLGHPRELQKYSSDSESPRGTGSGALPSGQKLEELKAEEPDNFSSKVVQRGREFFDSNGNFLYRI

The other results are listed elsewhere or left out.

Compound in this assay: c1ccc([C@@H]2C[C@H]2NC2CCNCC2)cc1
In words: log2 fold change, soluble protein after heating vs DMSO (PISA); higher = thermal stabilisation; K562 cells, 10 uM, 30 min; active = over 0.2 and 3.5 SD of the protein, either way, in both replicates (recomputed). In a few lines:
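K562 cells at 2×10^6 cells/mL were exposed to 10 μM compound for 30 min, then aliquots were heated for 3 min across 48°C-58°C, pooled, and extracted in PBS containing 0.5% NP-40 at 4°C. The supernatant after 21,000xg for 90 min was taken as soluble protein and measured by TMTpro 16plex LC-MS/MS with channel sums equalised. Thermal stability is reported relative to control samples, with values from duplicates. Fold changes are given on a log2 scale.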
In the case of NMI (UniProt Q13287), the log2 fold change was inactive: 0.022.

Turning to NIPA2 (UniProt Q8N8Q9), the log2 fold change is inactive: 0.106. With NEK7 (UniProt Q8TDX7) the figure was inactive: -0.077; with NQO2 (UniProt P16083), inactive: 0.005.

Turning to NIPSNAP3B (UniProt Q9BS92), the log2 fold change is inactive: 0.099.

Regarding NR2F2 (UniProt P24468), the log2 fold change is inactive: -0.051. In the case of NES (UniProt P48681) it was inactive: -0.016; in that of NRDC isoform 2 (UniProt O43847), inactive: 0. With NFS1 (UniProt Q9Y697) the figure was inactive: -0.012; with NPM3 (UniProt O75607), inactive: -0.019; with NHLRC2 (UniProt Q8NBF2), inactive: 0.024. With NOL12 (UniProt Q9UGY1) the figure was inactive: 0.047; with NOB1 (UniProt Q9ULX3), inactive: -0.06; with NIBAN1 (UniProt Q9BZQ8), inactive: 0.03.

Regarding NME7 (UniProt Q9Y5B8), the log2 fold change was inactive: -0.038. In the case of NIPA1 (UniProt Q7RTP0) it was inactive: 0.118; in that of NEU1 (UniProt Q99519), inactive: -0.025; in that of NPL (UniProt Q9BXD5), inactive: -0.015.

Consider NOP16 (UniProt Q9Y3C1), for which the log2 fold change was inactive: 0. In the case of NIT2 (UniProt Q9NQR4) it was inactive: -0.012; in that of NIFK (UniProt Q9BYG3), inactive: -0.052; in that of NSDHL (UniProt Q15738), inactive: -0.034. With NOMO1 (UniProt Q15155) the figure was inactive: 0.163; with NME2 isoform 2 (UniProt P22392), inactive: 0.013; with NELFE isoform 3 (UniProt P18615), inactive: 0.029. With NOP53 (UniProt Q9NZM5) the figure was inactive: 0.097.

On to NGRN (UniProt Q9NPE2), for which the log2 fold change is inactive: -0.002. With NNMT (UniProt P40261) the figure was inactive: -0.055.
